The source of these data is article PMC7370100, “In Vitro Assessment of the Genotoxic Hazard of Novel Hydroxamic Acid- and Benzamide-Type Histone Deacetylase Inhibitors (HDACi)” (International Journal of Molecular Sciences, 2020).

Assay type in all cases: cell-based
Assay [1] relates to IMR-32 neuroblastoma cells. The assay is described as follows: Alamar blue assay (cell viability), IMR-32 cells. The following applies: Homo sapiens. On the procedure: (§1) V79 hamster lung cells, which are recommended in the OECD toxicology guidelines for hazard identification (i.e., cytotoxicity and genotoxicity) of chemicals, were purchased from the German Collection of Microorganisms and Cell Cultures (DSMZ, Braunschweig, Germany). They were cultured in Dulbecco´s modified Eagle medium and Ham´s F12 medium (DMEM/F12) (PromoCell, Heidelberg, Germany) containing 10% fetal calf serum at 37 °C in a humidified atmosphere containing 5% CO2. VC8 hamster cells were defective in DNA double-strand break (DSB) repair by homologous recombination (HR) due to the lack of functional BRCA2 protein [69, 70]. VC8 cells were provided by B. Kaina (Institute of Toxicology, Mainz, Germany). Nucleotide excision repair defective XPA and CSB deficient cells were also provided by B. Kaina and were described before. They were grown in DMEM containing 10% fetal calf serum. […]
(§2) Cell viability was determined using the Alamar blue assay, which reflected the mitochondrial activity. […] Afterwards, the Neutral red that was taken up by the cells was extracted (50% ethanol/1% of acetic acid, 15 min at room temperature (RT)) and absorbance (540 nm) was measured. […] Approximate IC50 (~IC50, see Supplementary Table S1) were calculated from the corresponding dose-response curves.
A general note: Resazurin is reduced to fluorescent resorufin, in cell work by metabolically active cells.

In assay [2] the test system is SH-SY5Y neuroblastoma cells. The experiment in a line: Neutral red assay (cytotoxicity), SH-SY5Y cells. The following applies: Homo sapiens. On the procedure:
as §1, §2

Assay [3] has as its system V79 hamster lung cells. The experiment in a line: Neutral red assay (cytotoxicity), V79 cells. As to the method: as §1, §2
The subject of assay [4] is V79 hamster lung cells. The assay is described as follows: Alamar blue assay (cell viability), V79 cells. On the procedure:
as §1, §2

For assay [5], the system named is SH-SY5Y neuroblastoma cells. The assay is described as follows: Alamar blue assay (cell viability), SH-SY5Y cells. The following applies: Homo sapiens, 72 h, approximate IC50, read-out: IC50 - 72 h Treatment, SH-SY5Y. As to the method:
as §1, §2

The test system of assay [6] is IMR-32 neuroblastoma cells. The assay is described as follows: Neutral red assay (cytotoxicity), IMR-32 cells. The following applies: Homo sapiens. As to the method:
as §1, §2

Where [7] appears, read: 24 h, approximate IC50, read-out: IC50 - 24 h Treatment, IMR-32.
Setting [8] is: 72 h, approximate IC50, read-out: IC50 - 72 h Treatment, IMR-32.

In general, IC50 refers to the point on the concentration scale where inhibition reaches its midpoint. On to `O=C(CCCCCCC(=O)Nc1ccccc1)NO` [Vorinostat, vorinostat, reference compound], for which the IC50 in assay [1] (setting [7]) was found to be 5 µM; in assay [1] (setting [8]), 0.6 µM; in assay [2] (24 h, approximate IC50, read-out: IC50 - 24 h Treatment, SH-SY5Y), 50 µM; in assay [2] (72 h, approximate IC50, read-out: IC50 - 72 h Treatment, SH-SY5Y) it was 2 µM; in assay [3] (24 h, approximate IC50, read-out: IC50 - 24 h Treatment, V79), 8 µM; in assay [3] (72 h, approximate IC50, read-out: IC50 - 72 h Treatment, V79), 1 µM. For the same compound, the IC50 was 10 µM in assay [4] (V79, 24 h after drug treatment (values match Alamar blue data of Table S1), read-out: Viability (IC50) 24 h); 5 µM in assay [4] (V79, 72 h after drug treatment (values match Alamar blue data of Table S1), read-out: Viability (IC50) 72 h); 1 µM in assay [5]; over 50 µM in assay [6] (setting [7]); 0.6 µM in assay [6] (setting [8]).
